Results reported in publication PMC5852537.
Results are given in words; binding and its absence hold for the method and conditions named. For part of these data: A result given as binding can be weak or reduced; the word gives no strength.

Tests used:
[1] = biological target: T1, AtDRIP1 (125-C end) (Arabidopsis) (UniProt Q9M9Y4); experiment: two-hybrid; yeast AH109; LlDREB2B in pGADT7, AtDRIP1 (125-C end) or AtDRIP2 (131-C end) in pGBKT7; selection medium of this experiment not told (Supplementary Figure S4)
T1 sequence: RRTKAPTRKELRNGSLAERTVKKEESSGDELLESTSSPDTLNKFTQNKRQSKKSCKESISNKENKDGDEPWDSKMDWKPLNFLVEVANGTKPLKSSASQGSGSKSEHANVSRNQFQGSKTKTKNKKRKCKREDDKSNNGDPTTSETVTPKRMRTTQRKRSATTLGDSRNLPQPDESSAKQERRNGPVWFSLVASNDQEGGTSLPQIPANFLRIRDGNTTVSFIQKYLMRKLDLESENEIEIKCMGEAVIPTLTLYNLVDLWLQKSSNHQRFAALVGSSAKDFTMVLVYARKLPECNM

[2] = biological target: T2, AtDRIP2 (131-C end) (Arabidopsis) (UniProt Q94AY3); experiment: as above
T2 sequence: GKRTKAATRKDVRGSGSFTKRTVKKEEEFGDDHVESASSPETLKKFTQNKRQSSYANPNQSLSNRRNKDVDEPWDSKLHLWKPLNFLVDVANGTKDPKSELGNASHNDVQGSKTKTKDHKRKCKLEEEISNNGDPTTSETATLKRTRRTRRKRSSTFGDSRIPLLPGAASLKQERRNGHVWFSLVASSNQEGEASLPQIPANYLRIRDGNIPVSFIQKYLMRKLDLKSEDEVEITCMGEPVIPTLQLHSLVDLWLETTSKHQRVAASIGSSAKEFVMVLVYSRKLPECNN

AtBPM2 (Arabidopsis) = biological target: T3, AtBPM2 (Arabidopsis) (UniProt Q9M8J9); experiment: two-hybrid; yeast AH109; DREB2 in pGADT7, BPM2 in pGBKT7; growth on SD medium lacking Leu, Trp, His and Ade (SD-LWHA)
T3 sequence: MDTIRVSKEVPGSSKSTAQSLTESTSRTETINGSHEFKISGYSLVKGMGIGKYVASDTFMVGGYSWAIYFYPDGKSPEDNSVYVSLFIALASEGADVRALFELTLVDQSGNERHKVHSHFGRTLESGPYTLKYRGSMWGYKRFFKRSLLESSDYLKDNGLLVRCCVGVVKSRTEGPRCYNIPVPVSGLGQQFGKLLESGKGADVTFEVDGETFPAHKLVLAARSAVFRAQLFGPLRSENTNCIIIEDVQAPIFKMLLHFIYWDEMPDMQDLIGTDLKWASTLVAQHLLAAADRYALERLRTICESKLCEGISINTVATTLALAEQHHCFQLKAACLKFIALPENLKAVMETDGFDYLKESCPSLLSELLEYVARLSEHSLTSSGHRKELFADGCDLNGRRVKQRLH

LlDREB2B (Lilium longiflorum)
binding [1]: binds
binding [2]: binds
binding (AtBPM2 (Arabidopsis)): no binding
